These are yes or no findings as the source states them, for the method shown. Binding calls can cover weak binding; strength is not graded here.
Target: TaBZR2.1 (BD-TaBZR2.1 bait) (wheat (Triticum aestivum))
Test: two-hybrid; Matchmaker Gold system; pGBKT7-TaBZR2.1 bait and pGADT7-AGO4 prey co-transformed into Y2H-gold; plated on DDO (SD/-Leu/-Trp) and QDO (SD/-Ade/-His/-Leu/-Trp) with ABA (125 ng/mL)

- binding: binds
Substance: Argonaute 4 (AD-AGO4 prey) (from UniProt A0A1D5VIV1)

— paper PMC11641346
